This note sets out measurements from PMC9684302.

Amino acid sequences for entries named in this document (tags omitted). A change or cut given only in a name is not applied to a line headed by its entry.
UniProt Q16637: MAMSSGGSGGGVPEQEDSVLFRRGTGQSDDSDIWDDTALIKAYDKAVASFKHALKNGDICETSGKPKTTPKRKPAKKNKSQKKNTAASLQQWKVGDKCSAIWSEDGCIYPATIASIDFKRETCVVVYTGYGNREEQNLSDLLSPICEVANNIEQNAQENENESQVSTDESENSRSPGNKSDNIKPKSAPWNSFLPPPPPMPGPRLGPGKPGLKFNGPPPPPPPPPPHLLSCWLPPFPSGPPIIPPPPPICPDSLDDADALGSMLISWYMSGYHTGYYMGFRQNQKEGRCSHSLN
UniProt Q9BUR4: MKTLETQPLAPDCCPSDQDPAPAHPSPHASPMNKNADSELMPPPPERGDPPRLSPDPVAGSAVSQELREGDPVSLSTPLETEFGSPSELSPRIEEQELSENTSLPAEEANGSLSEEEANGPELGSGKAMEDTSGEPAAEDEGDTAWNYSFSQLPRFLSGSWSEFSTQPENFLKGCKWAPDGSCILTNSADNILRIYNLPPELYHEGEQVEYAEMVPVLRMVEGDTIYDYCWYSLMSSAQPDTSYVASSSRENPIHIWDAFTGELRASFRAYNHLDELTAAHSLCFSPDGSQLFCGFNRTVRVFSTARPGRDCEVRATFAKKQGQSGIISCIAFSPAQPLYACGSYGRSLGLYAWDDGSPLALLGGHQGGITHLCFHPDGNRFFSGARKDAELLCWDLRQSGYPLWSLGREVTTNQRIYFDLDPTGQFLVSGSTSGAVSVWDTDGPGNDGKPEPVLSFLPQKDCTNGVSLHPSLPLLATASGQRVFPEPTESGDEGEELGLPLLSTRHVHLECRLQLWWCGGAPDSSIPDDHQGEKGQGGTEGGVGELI
UniProt Q9BRJ7: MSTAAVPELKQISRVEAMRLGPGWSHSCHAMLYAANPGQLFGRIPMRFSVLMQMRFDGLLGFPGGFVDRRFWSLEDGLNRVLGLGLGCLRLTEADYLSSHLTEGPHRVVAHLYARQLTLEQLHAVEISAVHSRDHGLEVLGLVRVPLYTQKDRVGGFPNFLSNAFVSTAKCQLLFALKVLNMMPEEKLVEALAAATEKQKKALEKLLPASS
UniProt Q9H840: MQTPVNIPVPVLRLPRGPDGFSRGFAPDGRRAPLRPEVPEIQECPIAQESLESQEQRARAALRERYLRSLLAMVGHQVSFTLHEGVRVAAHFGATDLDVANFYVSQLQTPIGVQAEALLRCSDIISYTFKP
UniProt Q9UHI6: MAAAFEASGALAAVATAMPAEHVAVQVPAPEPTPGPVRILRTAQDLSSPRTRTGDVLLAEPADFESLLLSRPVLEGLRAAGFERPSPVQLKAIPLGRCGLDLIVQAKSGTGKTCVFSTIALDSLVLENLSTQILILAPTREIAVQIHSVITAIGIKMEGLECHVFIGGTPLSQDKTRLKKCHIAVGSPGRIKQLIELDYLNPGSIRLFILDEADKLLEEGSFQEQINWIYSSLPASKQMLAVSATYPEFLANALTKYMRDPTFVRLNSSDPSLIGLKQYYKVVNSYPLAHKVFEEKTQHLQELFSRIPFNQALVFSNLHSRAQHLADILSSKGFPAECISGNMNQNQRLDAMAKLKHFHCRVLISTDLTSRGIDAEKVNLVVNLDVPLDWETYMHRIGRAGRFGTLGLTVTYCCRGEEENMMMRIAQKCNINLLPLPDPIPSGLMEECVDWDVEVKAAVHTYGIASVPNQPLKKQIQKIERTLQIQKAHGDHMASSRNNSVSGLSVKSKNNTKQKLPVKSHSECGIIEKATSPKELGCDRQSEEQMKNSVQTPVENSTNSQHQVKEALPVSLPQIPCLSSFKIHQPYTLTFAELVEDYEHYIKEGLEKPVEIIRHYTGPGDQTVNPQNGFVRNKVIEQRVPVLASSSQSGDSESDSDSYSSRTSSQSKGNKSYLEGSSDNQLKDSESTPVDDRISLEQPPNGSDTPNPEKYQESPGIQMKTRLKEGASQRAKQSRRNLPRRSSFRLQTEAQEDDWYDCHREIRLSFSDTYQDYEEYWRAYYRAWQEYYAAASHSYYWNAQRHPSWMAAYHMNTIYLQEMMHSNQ
UniProt Q01844: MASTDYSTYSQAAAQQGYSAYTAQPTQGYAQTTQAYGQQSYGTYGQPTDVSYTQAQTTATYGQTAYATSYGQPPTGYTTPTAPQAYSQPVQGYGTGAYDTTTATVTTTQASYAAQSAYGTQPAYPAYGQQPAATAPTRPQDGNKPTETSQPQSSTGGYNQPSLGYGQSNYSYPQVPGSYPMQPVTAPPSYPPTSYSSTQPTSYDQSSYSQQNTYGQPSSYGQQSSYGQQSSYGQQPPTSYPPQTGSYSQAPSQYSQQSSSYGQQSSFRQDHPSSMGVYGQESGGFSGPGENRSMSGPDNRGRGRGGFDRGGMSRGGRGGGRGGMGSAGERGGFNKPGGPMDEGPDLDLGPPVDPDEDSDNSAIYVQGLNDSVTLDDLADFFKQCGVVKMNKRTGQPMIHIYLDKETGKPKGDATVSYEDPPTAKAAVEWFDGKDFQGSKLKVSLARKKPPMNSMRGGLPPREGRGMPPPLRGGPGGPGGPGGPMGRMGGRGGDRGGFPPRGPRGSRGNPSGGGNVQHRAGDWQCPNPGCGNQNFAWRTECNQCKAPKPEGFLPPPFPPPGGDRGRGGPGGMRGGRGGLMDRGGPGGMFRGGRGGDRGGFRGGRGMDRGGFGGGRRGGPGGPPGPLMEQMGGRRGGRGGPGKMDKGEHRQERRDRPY
UniProt P38432: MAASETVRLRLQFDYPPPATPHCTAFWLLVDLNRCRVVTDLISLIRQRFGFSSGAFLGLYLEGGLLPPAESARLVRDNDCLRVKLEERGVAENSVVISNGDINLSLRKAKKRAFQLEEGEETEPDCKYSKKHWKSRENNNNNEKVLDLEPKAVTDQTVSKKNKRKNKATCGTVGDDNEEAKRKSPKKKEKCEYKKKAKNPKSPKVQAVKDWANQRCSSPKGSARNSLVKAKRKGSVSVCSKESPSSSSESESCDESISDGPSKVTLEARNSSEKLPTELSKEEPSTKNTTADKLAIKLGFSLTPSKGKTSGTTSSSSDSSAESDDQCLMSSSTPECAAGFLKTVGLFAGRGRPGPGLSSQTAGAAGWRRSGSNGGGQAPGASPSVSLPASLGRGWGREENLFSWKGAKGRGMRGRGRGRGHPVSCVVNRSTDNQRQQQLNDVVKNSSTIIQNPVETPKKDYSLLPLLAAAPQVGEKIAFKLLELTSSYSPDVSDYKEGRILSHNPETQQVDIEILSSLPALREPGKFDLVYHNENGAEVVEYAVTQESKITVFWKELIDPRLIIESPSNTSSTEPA
UniProt P06730: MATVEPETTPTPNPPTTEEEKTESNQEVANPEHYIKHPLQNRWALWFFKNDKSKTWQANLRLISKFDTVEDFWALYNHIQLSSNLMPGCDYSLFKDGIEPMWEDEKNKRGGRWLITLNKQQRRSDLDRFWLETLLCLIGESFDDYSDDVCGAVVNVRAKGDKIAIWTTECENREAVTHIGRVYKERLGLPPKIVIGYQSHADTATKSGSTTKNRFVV
UniProt O75420: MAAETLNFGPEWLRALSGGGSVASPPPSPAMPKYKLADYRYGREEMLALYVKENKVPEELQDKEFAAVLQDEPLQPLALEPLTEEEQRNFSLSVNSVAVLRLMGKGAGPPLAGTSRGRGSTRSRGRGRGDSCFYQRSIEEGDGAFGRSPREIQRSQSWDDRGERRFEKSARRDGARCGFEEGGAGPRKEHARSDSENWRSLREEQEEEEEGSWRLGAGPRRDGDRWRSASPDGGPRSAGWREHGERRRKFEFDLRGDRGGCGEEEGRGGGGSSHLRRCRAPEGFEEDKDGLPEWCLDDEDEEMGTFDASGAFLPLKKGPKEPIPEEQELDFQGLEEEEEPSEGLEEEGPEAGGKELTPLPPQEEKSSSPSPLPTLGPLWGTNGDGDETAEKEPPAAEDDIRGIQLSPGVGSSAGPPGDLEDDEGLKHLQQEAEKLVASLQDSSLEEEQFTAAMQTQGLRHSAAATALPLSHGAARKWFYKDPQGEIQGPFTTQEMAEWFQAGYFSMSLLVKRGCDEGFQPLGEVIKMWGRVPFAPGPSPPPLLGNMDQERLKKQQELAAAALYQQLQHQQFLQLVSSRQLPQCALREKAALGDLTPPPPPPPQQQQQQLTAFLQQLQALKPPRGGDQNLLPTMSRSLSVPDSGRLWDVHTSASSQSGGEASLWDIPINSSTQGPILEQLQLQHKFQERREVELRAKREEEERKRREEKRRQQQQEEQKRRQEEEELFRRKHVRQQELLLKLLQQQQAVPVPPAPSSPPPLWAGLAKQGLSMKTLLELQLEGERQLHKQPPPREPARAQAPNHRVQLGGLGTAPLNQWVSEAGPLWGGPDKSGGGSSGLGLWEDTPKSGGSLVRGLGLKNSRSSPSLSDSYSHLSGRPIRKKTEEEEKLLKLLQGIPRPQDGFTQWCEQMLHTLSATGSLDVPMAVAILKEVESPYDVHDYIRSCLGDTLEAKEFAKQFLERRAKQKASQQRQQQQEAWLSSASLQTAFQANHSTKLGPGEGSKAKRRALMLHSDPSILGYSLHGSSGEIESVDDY
UniProt O60573: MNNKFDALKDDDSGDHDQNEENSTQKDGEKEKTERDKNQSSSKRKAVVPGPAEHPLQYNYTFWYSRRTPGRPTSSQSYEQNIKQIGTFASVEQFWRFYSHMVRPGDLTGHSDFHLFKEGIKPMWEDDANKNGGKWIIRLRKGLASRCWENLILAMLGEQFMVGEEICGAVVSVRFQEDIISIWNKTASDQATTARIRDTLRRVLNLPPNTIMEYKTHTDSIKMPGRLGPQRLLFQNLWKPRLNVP
UniProt O14893: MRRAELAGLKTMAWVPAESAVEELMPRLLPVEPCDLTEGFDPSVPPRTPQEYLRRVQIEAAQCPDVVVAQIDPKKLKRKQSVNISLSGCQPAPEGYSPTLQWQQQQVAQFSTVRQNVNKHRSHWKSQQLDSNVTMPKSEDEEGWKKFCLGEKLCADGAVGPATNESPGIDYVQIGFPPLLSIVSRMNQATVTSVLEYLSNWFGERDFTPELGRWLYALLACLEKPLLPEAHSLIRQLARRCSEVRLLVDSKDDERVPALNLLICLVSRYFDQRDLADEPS
UniProt Q8TEQ6: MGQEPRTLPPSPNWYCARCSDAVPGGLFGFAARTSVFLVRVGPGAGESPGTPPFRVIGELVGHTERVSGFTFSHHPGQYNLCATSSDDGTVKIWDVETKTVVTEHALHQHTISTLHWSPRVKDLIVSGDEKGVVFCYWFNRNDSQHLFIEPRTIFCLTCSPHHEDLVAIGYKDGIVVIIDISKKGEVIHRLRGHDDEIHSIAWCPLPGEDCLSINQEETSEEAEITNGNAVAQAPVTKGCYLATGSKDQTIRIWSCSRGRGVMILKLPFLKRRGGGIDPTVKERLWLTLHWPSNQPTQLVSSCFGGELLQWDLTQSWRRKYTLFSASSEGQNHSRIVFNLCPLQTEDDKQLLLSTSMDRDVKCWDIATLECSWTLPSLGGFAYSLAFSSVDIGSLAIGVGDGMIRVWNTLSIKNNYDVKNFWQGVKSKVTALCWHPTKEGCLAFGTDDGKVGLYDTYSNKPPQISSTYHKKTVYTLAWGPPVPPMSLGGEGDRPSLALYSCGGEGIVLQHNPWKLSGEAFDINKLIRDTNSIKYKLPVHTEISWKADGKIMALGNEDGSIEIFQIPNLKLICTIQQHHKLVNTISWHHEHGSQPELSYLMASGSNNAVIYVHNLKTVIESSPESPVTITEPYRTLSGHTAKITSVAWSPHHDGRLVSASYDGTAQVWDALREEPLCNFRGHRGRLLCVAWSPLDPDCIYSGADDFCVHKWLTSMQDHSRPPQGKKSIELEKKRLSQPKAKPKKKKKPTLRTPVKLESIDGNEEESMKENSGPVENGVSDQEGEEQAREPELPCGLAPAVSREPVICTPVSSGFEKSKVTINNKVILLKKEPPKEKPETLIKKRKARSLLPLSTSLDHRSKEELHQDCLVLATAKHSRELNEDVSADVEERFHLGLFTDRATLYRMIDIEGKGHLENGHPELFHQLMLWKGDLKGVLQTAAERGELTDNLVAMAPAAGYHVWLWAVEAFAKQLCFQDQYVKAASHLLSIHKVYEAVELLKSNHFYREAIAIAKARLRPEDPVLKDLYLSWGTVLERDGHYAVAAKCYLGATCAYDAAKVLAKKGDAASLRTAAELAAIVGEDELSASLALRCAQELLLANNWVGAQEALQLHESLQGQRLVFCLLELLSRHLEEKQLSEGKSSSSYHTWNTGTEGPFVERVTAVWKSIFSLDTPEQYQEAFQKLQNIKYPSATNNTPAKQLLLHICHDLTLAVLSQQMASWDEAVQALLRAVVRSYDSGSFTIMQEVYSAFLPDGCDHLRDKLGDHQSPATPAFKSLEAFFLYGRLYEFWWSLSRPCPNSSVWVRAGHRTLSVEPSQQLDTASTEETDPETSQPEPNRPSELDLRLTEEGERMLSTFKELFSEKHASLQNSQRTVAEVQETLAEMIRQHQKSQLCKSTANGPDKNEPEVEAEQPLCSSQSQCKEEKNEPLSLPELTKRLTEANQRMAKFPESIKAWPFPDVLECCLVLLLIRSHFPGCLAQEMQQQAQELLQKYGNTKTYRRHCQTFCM

Assay [1] deals with MYC-BirA-SMN (human) (UniProt Q16637). In words: proximity labelling; BioID in stably transduced HEK293T (BirA, BirA-SMN, BirA-SMN Y109C), streptavidin-Sepharose, label-free quantitative mass spectrometry, triplicate; BirA-SMN compared with BirA alone and with BirA-SMN Y109C.
Assay [2] shares this target. In words: proximity labelling; BioID: FLAG-tagged candidates co-expressed with MYC-BirA or MYC-BirA-SMN in HEK293T, doxycycline and biotin; biotinylated proteins purified on streptavidin-Sepharose, immunoblot. On the technique in general: Immunoblotting shows a protein as a band on a membrane.
Assay [3] addresses MYC-BirA-SMN3YA (aromatic cage Y109A/Y127A/Y130A triple mutant) (human) (UniProt Q16637). Put plainly: proximity labelling; BioID: MYC-tagged BirA constructs transfected in HEK293T, doxycycline 1 µg/ml and biotin 50 µM for 24 h; biotinylated endogenous proteins pulled down with streptavidin-Sepharose, immunoblot.
The target of assay [4] is MYC-BirA-SMN_(E134K) (human) (UniProt Q16637). The assay is described as above.
For assay [5], the target named is MYC-BirA-SMN_(Y109C) (human) (UniProt Q16637). Described as above.
Assay [6] has as its target MYC-BirA-SMN (human) (UniProt Q16637). The assay is described as above.

Results are given in words; binding and its absence hold for the method and conditions named. Binding seen in cells or lysates may run through a third protein. Here binding means that the protein was enriched with, or labelled near, the bait; the list need not be complete. For part of these data: No binding means not detected with the bait.

Take WRAP53 (from UniProt Q9BUR4 1-548): in the assay with MYC-BirA-SMN (human) [1], the binding entry is given as “binds”. In the case of FLAG-TIRR (from UniProt Q9BRJ7 1-211), the binding result with MYC-BirA-SMN (human) [2] is listed as “no binding”. For the substance GEMIN6 (from UniProt Q8WXD5 1-167), in the assay with MYC-BirA-SMN (human) [1], the binding entry was “binds”. Still for that read-out and setting: the value for “PRMT5 (from UniProt O14744 1-637) (enzyme)” was “binds”. The same measure, in the same setting: the value for “fragile X-related protein 1 (FXR1), endogenous (from UniProt P51114 1-621)” was “binds”. As to FLAG-FXR1 (from UniProt P51114 1-621), the binding result with MYC-BirA-SMN (human) [2] is given as “binds”.

For GEMIN7 (from UniProt Q9H840 1-131), the binding result in the assay with MYC-BirA-SMN (human) [1] is given as “binds”.

Regarding GEMIN3 (from UniProt Q9UHI6 1-824), in the assay with MYC-BirA-SMN (human) [1], the binding result is reported as “binds”. On the same count and under the same terms, the value for EWSR1 (from UniProt Q01844 1-656) was “binds”. In the case of COILIN (from UniProt P38432 1-576), the binding entry was “no binding” in assay [3], “binds weakly” in assay [4] and “binds weakly” in assay [5]. eIF4E (from UniProt P06730 1-217): the binding entry in the assay with MYC-BirA-SMN (human) [1] is “binds”.

For the substance GIGYF1 (from UniProt O75420 1-1035), the binding result with MYC-BirA-SMN (human) [1] is on record as “binds”. The same measure, in the same setting: the value for eIF4E2 (from UniProt O60573 1-245) was “binds”.

Regarding GEMIN2 (from UniProt O14893 1-280), the binding entry (with MYC-BirA-SMN (human) [1]; in assay [3]; in assay [4]; with MYC-BirA-SMN (human) [6]; in assay [5]) was “binds” each time. Consider FOCAD (from UniProt Q5VW36 1-1801), for which the binding result in the assay with MYC-BirA-SMN (human) [1] is given as “binds”. Consider FUS (from UniProt P35637 1-526), for which, in the assay with MYC-BirA-SMN (human) [1], the binding entry is “binds”. GEMIN5 (from UniProt Q8TEQ6 1-1508): the binding entry with MYC-BirA-SMN (human) [1] is given as “binds”. The same measure, in the same setting: for AGO2 (from UniProt Q9UKV8 1-859) the value was “binds”.
